Some of the results follow.
B1: il10ra_site1_sap_7_mot_HHH_b2_01447_af2_000000258_0001_1_20_H_._HHH_b2_03513_af2_0001_0000100003_0000001_0_0001 (protein)
chain: SSSSDDEVLELSVEAFRLALRGDPEKAQEVLEEALELAEELGNERAAEMIENMLKILRRKSSSSS
B2: il10ra_site1_normal_mot_HHH_b2_08186_000000021_0001_43_56_H_._HHH_b1_03152_0001_0000100002_0000001_0 (protein)
chain: SSSSSEEEELEELLEELEQLLREGDRERFARVLQEALRLAFRASNEEILRRLWELLQELASSSSS
B3: il10ra_site1_normal_mot_HHH_b2_02337_000000026_0001_38_52_H_._HHH_b1_06658_0001_0000100021_0000001_0 (protein)
chain: SSSSSDREERIEELLREAERLAEEGNPEEATRLLAEAVRLIFELGDEELLEELWELVKRLSSSSS
B4: il10ra_site1_sap_13_mot_HHH_b1_07768_000000240_0001_18_35_H_._HHH_b2_06480_0001_0000100005_0000001_0_0001_af2pred_0001 (protein)
chain: SSSSDEEYERLREALEEVIELLEEGNPEEARKVVEELERLAEERNDFLVELMARILKRDIESSSS
B5: il10ra_site1_sap_20_mot_HHH_b1_03531_000000273_0001_41_54_H_._HHH_b2_04967_0001_0000300019_0000001_0_0001 (protein)
chain: SSSSSEVEELYRLIRELNELLHEGDEEKVEELAEEAKELAEKLNSRVLLVLIEWLLRRFNSSSSS
B6: il10ra_site1_normal_mot_HHH_b2_08186_000000021_0001_43_56_H_._HHH_b2_06358_af2_0001_0000600010_0000001_0 (protein)
chain: SSSSSSDEVEEEVEELLREAEKVDREELLRLLLEALRLVFEAGNKELLQEIWEVLRRLSSSSSSS
B7: il10ra_site1_sap_20_mot_HHH_b1_06789_af2_000000041_0001_1_20_H_._HHH_b2_06658_af2_0002_0000100002_0000001_0_0001 (protein)
chain: SSSSSEDEEYVELALRFAQWLAEEGDPEAARHFLEAAEDIARNGNNPELEELVEEVKEELSSSSS
B8: il10ra_site1_sap_16_mot_HHH_b1_02665_000000293_0001_1_18_H_._HHH_b1_07993_0001_0000300023_0000001_0_0001 (protein)
chain: SSSSNEKFEHVMEAIEEIMKLINDGNPEEARELAEKLEELIEELGNRLAKWQLEFVLKHTSSSSS
B9: il10ra_site1_normal_mot_HHH_b1_01821_000000158_0001_23_39_H_._HHH_b1_04578_0001_0000200009_0000001_1 (protein)
chain: SSSSSEFQRLAQRAVRLAFRLSDQEVLQRIWELFRRYVEEGDPRLEEELEELLEELEERGSSSSS
B10: il10ra_site1_sap_16_mot_8756ee2cf497b5429c717dfc0c0bcfd6_0001_000000186_0001_1_13_H_._HHH_b1_03338_0001_0000100002_0000003_0_0001 (protein)
chain: SSSSTLEWSVKFMLEIVEELLERGDKEKAEHLLEALLRHLKEAGDPELLREVEELLEEVRKSSSS
B11: il10ra_site1_sap_19_mot_HHH_b1_03763_000000209_0001_22_38_H_._HHH_b2_01352_0001_0000100003_0000002_0_0001_af2pred_0001 (protein)
chain: SSSSSDEAEKAIEWLLRAAKQLDDEEVVKLAIRDAEVAAEALGNEELVEELRQILEELRSSSSSS
B12: il10ra_site1_normal_mot_b26a303360aa2756ef5b79665ce52f45_0001_000000179_0001_1_11_H_._HHH_b1_04981_0001_0000100001_0000002_0_af2pred_0001 (protein)
chain: SSSSNEEIEEVIELLREAAELLRKGNPEEAEKLLEEAERLAKELGNTTLEFAVEFLLKQARSSSS
B13: il10ra_site1_sap_19_mot_HHH_b2_00723_000000075_0001_22_38_H_._HHH_b2_03083_0001_0000200008_0000002_0_0001 (protein)
chain: SSSSDEEYARLAVRFAEAMLRAGNEKAAELELELMLSALRRNGDEEAAEIIEEALEAVKGSSSSS
B14: il10ra_site1_normal_mot_HHH_b2_04912_000000028_0001_1_20_H_._HHH_b1_01231_af2_0001_0000400044_0000002_0 (protein)
chain: SSSSNDEALELVLEALRLALRGDFEEAKEVLEEAAKIAEEEGNERLLRVIRELLQAIESQLSSSS
B15: il10ra_site1_sap_25_mot_HHH_b1_03106_000000018_0001_1_19_H_._HHH_b2_06377_0001_0000200015_0000001_0_0001 (protein)
chain: SSSSSEEREEVLELSLEAFRLALRGDPEEARKLLEEAERLAEELNSPTALMAIRSMLKALSSSSS
B16: il10ra_site1_sap_11_mot_HHH_b1_05084_000000041_0001_41_57_H_._HHH_b2_07221_0001_0000300028_0000001_0_0001 (protein)
chain: SSSSDEEEYIRLALRFARWALEAGSPRSARIALRAAKEMAERLGDEELLELVEKLLEELESSSSS
B17: il10ra_site1_sap_18_mot_a6c796b944619e241e020fd597ddb6da_0001_af2_000000092_0001_15_31_H_._HHH_b2_04730_0001_0000100014_0000002_0_0001 (protein)
chain: SSSSSEEVYELSREAAELLREGNPEEARKVLEEAEELAEEENDWATLFAIRHMLRAIEELSSSSS
B18: il10ra_site1_sap_13_mot_HHH_b1_00456_000000263_0001_1_17_H_._HHH_b2_00124_0001_0000100008_0000001_0_0001_af2pred_dldesign_0_af2pred (protein)
chain: SSSSSPETEEIIRLIREALELQYEGKPEEAKEVLDKAIELAKKAGDEILLYTAEFLRKRLSSSSS

Biological target: il10ra, Q13651
Test: yeast display titration

Binder | apparent Kd
B1 | inactive: no binding seen
B2 | inactive: no binding seen
B3 | inactive: no binding seen
B4 | inactive: no binding seen
B5 | inactive: > 1320 nM
B6 | inactive: no binding seen
B7 | inactive: no binding seen
B8 | inactive: no binding seen
B9 | inactive: no binding seen
B10 | inactive: no binding seen
B11 | inactive: no binding seen
B12 | inactive: no binding seen
B13 | inactive: no binding seen
B14 | inactive: no binding seen
B15 | inactive: no binding seen
B16 | inactive: no binding seen
B17 | inactive: no binding seen
B18 | inactive: no binding seen

Some of the entries so far, as tab-separated lines.
Binder	apparent Kd
B8	inactive: no binding seen
B9	inactive: no binding seen

Source: publication PMC10163288
